Data source: PubChem BioAssay AID504808 (Drosophila RNAi Screening Center, 2011)
Purpose: 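Genes whose loss lifts activity of an E2F-responsive reporter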 (primary screen). Cell system: Drosophila S2 cells. Reagents: long dsRNA against Drosophila genes. Read-out: 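Firefly luciferase driven by E2F sites, normalised to Renilla luciferase on the same minimal promoter, measured by plate reader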. Scale: E2F firefly: higher = more E2F reporter activity; Renilla normaliser: higher = more normaliser reporter signal. Call rule: 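Called active if the normalised E2F reporter went up by over 50%; the cutoff is arbitrary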.
The screen tested about 21,000 reagents; below is a random part of those that have a named target and a result. Of all reagents, 18 (0.084%) were called active. 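Raw counts without plate normalisation, one of two replicates; the ratio scores behind the calls were not deposited.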 Names joined by + are all predicted targets of the reagent. The record does not give: the amount of reagent, the time to read-out.

| Target gene | DRSC id | E2F firefly, rep 1 | Renilla normaliser, rep 1 | Call |
| --- | --- | --- | --- | --- |
| Pgls (6-phosphogluconolactonase) | DRSC19769 | 1.36e5 | 6044 | inactive |
| CG14073 | DRSC10078 | 1.45e5 | 7044 | inactive |
| mRRF2 (mitochondrial ribosome recycling factor 2) | DRSC16143 | 1.01e5 | 7376 | inactive |
| sp3 (spermathreecae) | DRSC16354 | 1.41e5 | 8348 | inactive |
| alphaSnap (alpha Soluble NSF attachment protein) | DRSC11285 | 63666 | 3864 | inactive |
| Lsd-1 (Lipid storage droplet-1) | DRSC14236 | 74369 | 2980 | inactive |
| Cht7 (Chitinase 7) | DRSC08538 | 78800 | 3521 | inactive |
| Pcmt (Protein-L-isoaspartate (D-aspartate) O-methyltransferase) | DRSC12363 | 1.46e5 | 6372 | inactive |
| dao (down and out) | DRSC01960 | 99942 | 4131 | inactive |
| mRpL24 (mitochondrial ribosomal protein L24) | DRSC03113 | 95056 | 4214 | inactive |
| CG9471 | DRSC16499 | 1.32e5 | 6697 | inactive |
| Pabp2 | DRSC07501 | 60325 | 3750 | inactive |
| MetRS-m (Methionyl-tRNA synthetase, mitochondrial) | DRSC16443 | 63095 | 3363 | inactive |
| MetRS-m (Methionyl-tRNA synthetase, mitochondrial) | DRSC16515 | 1.15e5 | 5798 | inactive |
| CG7332 | DRSC20038 | 1.68e5 | 5459 | inactive |
| ng3 (new glue 3) | DRSC18804 | 1.04e5 | 5691 | inactive |
| Toll-7 | DRSC07563 | 1.50e5 | 4890 | inactive |
| CG2604 | DRSC12313 | 1.27e5 | 4840 | inactive |
| nAChRbeta1 (nicotinic Acetylcholine Receptor beta1) | DRSC08097 | 1.36e5 | 4264 | inactive |
| nAChRbeta1 (nicotinic Acetylcholine Receptor beta1) | DRSC08728 | 77707 | 3949 | inactive |
| CG11892 | DRSC14428 | 1824 | 1004 | inactive |
| CG14304 | DRSC14783 | 1.03e5 | 5574 | inactive |
| BRWD3 | DRSC15369 | 79445 | 3868 | inactive |
| BRWD3 | DRSC16032 | 1.16e5 | 6365 | inactive |
| Caf1-105 (Chromatin assembly factor 1, p105 subunit) | DRSC06209 | 1.39e5 | 4999 | inactive |
| lqf (liquid facets) | DRSC11363 | 67091 | 3522 | inactive |
| CG12310 | DRSC09878 | 1.44e5 | 6856 | inactive |
| IleRS-m (Isoleucyl-tRNA synthetase, mitochondrial) | DRSC10506 | 1.49e5 | 7447 | inactive |
| CG13344 | DRSC06378 | 2851 | 221 | inactive |
| tor (torso) | DRSC07707 | 1.46e5 | 4702 | inactive |
| GluRIIA (Glutamate receptor IIA) | DRSC03334 | 1.48e5 | 4198 | inactive |
| nst (nesthocker) | DRSC09755 | 73631 | 3433 | inactive |
| bowl | DRSC00805 | 68791 | 3692 | inactive |
| Slc25A46b | DRSC02888 | 1.04e5 | 4232 | inactive |
| CG13313 | DRSC09984 | 1.06e5 | 3538 | inactive |
| Ilp3 (Insulin-like peptide 3) | DRSC10168 | 1.15e5 | 6448 | inactive |
| Vps35 (Vacuolar protein sorting 35) | DRSC04519 | 78942 | 3509 | inactive |
| Dph3 (Diphthamide biosynthesis 3) | DRSC14923 | 1.41e5 | 5598 | inactive |
| ari-1 (ariadne 1) | DRSC20308 | 2.48e5 | 6694 | inactive |
| MED23 + CG3700 | DRSC04406 | 88793 | 4115 | inactive |
| MED23 + CG3700 | DRSC04407 | 86042 | 4113 | inactive |
| Ptth (Prothoracicotropic hormone) | DRSC00356 | 1.68e5 | 6260 | inactive |
| dhd (deadhead) | DRSC18761 | 8608 | 792 | inactive |
| rib (ribbon) | DRSC07021 | 70010 | 3443 | inactive |
| CG17944 | DRSC12572 | 1.36e5 | 6653 | inactive |
| Nrk (Neurospecific receptor kinase) | DRSC07480 | 1.04e5 | 4025 | inactive |
| CG32576 + UQCR-14 | DRSC19870 | 1.59e5 | 6053 | inactive |
| GstO3 (Glutathione S transferase O3) | DRSC10710 | 1.02e5 | 3990 | inactive |
| bi (bifid) | DRSC18742 | 1.08e5 | 5636 | inactive |
| Atg10 (Autophagy-related 10) | DRSC06172 | 1.43e5 | 4555 | inactive |
| CG9646 | DRSC07342 | 1.54e5 | 5239 | inactive |
| Npc1a (Niemann-Pick type C-1a) | DRSC03378 | 1.68e5 | 5724 | inactive |
| CG6959 | DRSC16151 | 1.32e5 | 5455 | inactive |
| Su(var)2-10 (Suppressor of variegation 2-10) | DRSC07721 | 3602 | 208 | inactive |
| Adat1 (Adenosine deaminase, tRNA-specific 1) | DRSC03479 | 1.09e5 | 4225 | inactive |
| CG4956 | DRSC15683 | 1.11e5 | 5892 | inactive |
| CG11313 | DRSC14295 | 1.19e5 | 5856 | inactive |
| CG14805 | DRSC18554 | 1.19e5 | 6366 | inactive |
| jp (junctophilin) | DRSC02213 | 78691 | 3236 | inactive |
| jp (junctophilin) | DRSC02744 | 1.22e5 | 4868 | inactive |
| Tom70 (Translocase of outer membrane 70) | DRSC02990 | 1.02e5 | 4166 | inactive |
| CG18870 | DRSC04313 | 1.08e5 | 4878 | inactive |
| cype (cyclope) | DRSC02356 | 1.45e5 | 5042 | inactive |
| CG15044 | DRSC19620 | 2.40e5 | 6332 | inactive |
| gammaTub23C (gamma-Tubulin at 23C) | DRSC00820 | 83028 | 3501 | inactive |
| CG32112 | DRSC09815 | 1.16e5 | 6113 | inactive |
| gol (goliath) | DRSC04689 | 71095 | 3492 | inactive |
| FAM21 (Family with sequence similarity 21) | DRSC06623 | 71872 | 3371 | inactive |
| CG10864 | DRSC14273 | 1.49e5 | 7999 | inactive |
| CG14974 | DRSC08433 | 1.04e5 | 3666 | inactive |
| mRpL35 (mitochondrial ribosomal protein L35) | DRSC14586 | 1.38e5 | 8744 | inactive |
| CG33552 | DRSC01551 | 1.37e5 | 4860 | inactive |
| Tet (Ten-Eleven Translocation (TET) family protein) | DRSC08550 | 81987 | 3595 | inactive |
| CG7737 | DRSC07033 | 3016 | 225 | inactive |
| Pfdn1 (Prefoldin 1) | DRSC02325 | 1.55e5 | 5146 | inactive |
| CG13362 | DRSC17897 | 56142 | 3151 | inactive |
| mlt (mulet) | DRSC06120 | 2641 | 201 | inactive |
| Desat2 (Desaturase 2) | DRSC15919 | 1.38e5 | 5726 | inactive |
| CG15130 | DRSC02430 | 1.03e5 | 4364 | inactive |
| Golgin84 (Golgin-84) | DRSC15269 | 1.22e5 | 6815 | inactive |
| RpL27 (Ribosomal protein L27) | DRSC15638 | 50014 | 5626 | inactive |
| Acp53C14c (Accessory gland protein 53C14c) | DRSC05626 | 1.60e5 | 5561 | inactive |
| CG34196 | DRSC05704 | 1.43e5 | 6604 | inactive |
| CR33317 (pseudo) | DRSC02653 | 1.06e5 | 4605 | inactive |

Already shown: 13 of the entries above.
| Target gene | DRSC id | E2F firefly, rep 1 | Renilla normaliser, rep 1 | Call |
| --- | --- | --- | --- | --- |
| nAChRbeta1 (nicotinic Acetylcholine Receptor beta1) | DRSC08728 | 77707 | 3949 | inactive |
| CG11892 | DRSC14428 | 1824 | 1004 | inactive |
| CG14304 | DRSC14783 | 1.03e5 | 5574 | inactive |
| BRWD3 | DRSC15369 | 79445 | 3868 | inactive |
| BRWD3 | DRSC16032 | 1.16e5 | 6365 | inactive |
| Caf1-105 (Chromatin assembly factor 1, p105 subunit) | DRSC06209 | 1.39e5 | 4999 | inactive |
| lqf (liquid facets) | DRSC11363 | 67091 | 3522 | inactive |
| CG12310 | DRSC09878 | 1.44e5 | 6856 | inactive |
| IleRS-m (Isoleucyl-tRNA synthetase, mitochondrial) | DRSC10506 | 1.49e5 | 7447 | inactive |
| CG13344 | DRSC06378 | 2851 | 221 | inactive |
| tor (torso) | DRSC07707 | 1.46e5 | 4702 | inactive |
| GluRIIA (Glutamate receptor IIA) | DRSC03334 | 1.48e5 | 4198 | inactive |
| nst (nesthocker) | DRSC09755 | 73631 | 3433 | inactive |
